Data from US20060252670A1, “Method of reducing drug-induced adverse side effects in a patient” (Intercept Pharmaceuticals Inc., priority 2004, published 2006).
Some entries share one result that the patent states for a list of compounds.

Tested on: HSC-T6
Test: α1(I) collagen, α-SMA and PPARγ mRNA in HSC-T6 exposed to FXR and PPARγ ligands
Format: cell-based, rat
Settings: HSC-T6, 1 μM rosiglitazone alone

SMILES: CN(CCOc1ccc(CC2SC(=O)NC2=O)cc1)c1ccccn1 (stereo not shown) [rosiglitazone]
- decrease of α1(I) collagen and α-SMA mRNA: 30-40%
